Source: US20110059979A1, “Piperidine/Cyclohexane Carboxamide Derivatives For Use as Vanilloid Receptor Modulators” (GLAXO GROUP LIMITED, priority 2003, published 2011)
Some of these results come from one statement about several compounds together.

The chains behind the UniProt entries cited, without tags or fusion partners.
UniProt Q8NER1, whole entry: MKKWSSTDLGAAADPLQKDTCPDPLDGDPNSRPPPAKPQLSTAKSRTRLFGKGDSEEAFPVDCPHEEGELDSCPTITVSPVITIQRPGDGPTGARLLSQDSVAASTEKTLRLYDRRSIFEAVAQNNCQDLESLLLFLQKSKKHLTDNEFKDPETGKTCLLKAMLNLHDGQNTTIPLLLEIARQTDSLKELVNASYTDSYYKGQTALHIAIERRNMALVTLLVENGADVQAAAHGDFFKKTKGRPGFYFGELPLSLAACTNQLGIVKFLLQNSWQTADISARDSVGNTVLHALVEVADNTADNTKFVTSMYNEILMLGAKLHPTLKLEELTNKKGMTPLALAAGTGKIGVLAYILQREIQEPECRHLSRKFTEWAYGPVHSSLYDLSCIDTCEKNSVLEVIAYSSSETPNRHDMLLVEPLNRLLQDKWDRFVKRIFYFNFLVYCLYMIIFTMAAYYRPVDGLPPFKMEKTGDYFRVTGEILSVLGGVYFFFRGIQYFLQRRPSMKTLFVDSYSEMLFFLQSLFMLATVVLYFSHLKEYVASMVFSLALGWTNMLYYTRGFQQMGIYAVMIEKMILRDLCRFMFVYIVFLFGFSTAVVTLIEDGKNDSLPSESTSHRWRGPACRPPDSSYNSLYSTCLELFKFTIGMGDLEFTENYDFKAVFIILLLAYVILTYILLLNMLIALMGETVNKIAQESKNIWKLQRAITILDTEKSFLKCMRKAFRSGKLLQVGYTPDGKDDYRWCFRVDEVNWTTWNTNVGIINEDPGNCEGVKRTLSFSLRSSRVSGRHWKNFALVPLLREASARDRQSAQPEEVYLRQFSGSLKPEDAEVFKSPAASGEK

Target: T1, human VR1 (Homo sapiens, UniProt Q8NER1)
T1 construct: expressed in transfected cells
Assay: FLIPR based calcium assay, capsaicin-stimulated 1321N1 cells expressing human VR1
Format: cell-based
Conditions: antagonist activity against capsaicin; transfected astrocytoma 1321N1 cells stably expressing human VR1; pKb generated from IC50 using Cheng-Prusoff equation

SMILES | pKb
Cn1c(=O)ccc2c(NC(=O)C3CCN(c4ccc(Cl)cc4)CC3)cccc21 [Example 1, 1-(4-Chlorophenyl)-N-(1-methyl-2-oxo-1,2-dihydro-5-quinolinyl)-4-piperidinecarboxamide] | > 7.0
Cc1nccc2c(NC(=O)C3CCC(c4ccc(Cl)cc4)CC3)cccc12 (stereo not drawn) [Example 3] | > 7.0
Cc1nccc2c(NC(=O)C3CCN(c4ccc(Cl)cc4)CC3)cccc12 [Example 8] | > 7.0
Cc1nccc2c(NC(=O)C3CCN(c4ccc(Cl)cc4C(F)(F)F)CC3)cccc12 [Example 16] | > 7.0
Cc1nccc2c(NC(=O)C3CCN(c4ccc(Cl)cc4Cl)CC3)cccc12 [Example 17] | > 7.0
Cc1nccc2c(NC(=O)C3CCN(c4cccc(Cl)c4)CC3)cccc12 [Example 18] | > 7.0
Cc1cc(Cl)ccc1N1CCC(C(=O)Nc2cccc3c(C)nccc23)CC1 [Example 19] | > 7.0
Cc1nccc2c(NC(=O)C3CCN(c4ccc(C(F)(F)F)cc4)CC3)cccc12 [Example 20] | > 7.0
Cc1nccc2c(NC(=O)C3CCN(c4ccc(Cl)cc4F)CC3)cccc12 [Example 21] | > 7.0
Cc1nccc2c(NC(=O)C3CCN(c4cc(Cl)cc(Cl)c4)CC3)cccc12 [Example 22] | > 7.0
Cc1nccc2c(NC(=O)C3CCN(c4ccc(Cl)c(Cl)c4)CC3)cccc12 [Example 23] | > 7.0
Cc1nccc2c(NC(=O)C3CCN(c4ccc(F)cc4F)CC3)cccc12 [Example 24] | > 7.0
Cc1nccc2c(NC(=O)C3CCN(c4ccc(F)cc4Cl)CC3)cccc12 [Example 25] | > 7.0
Cc1nccc2c(NC(=O)C3CCN(c4ccc(F)cc4)CC3)cccc12 [Example 28] | > 7.0
Cc1ccc(N2CCC(C(=O)Nc3cccc4c(C)nccc34)CC2)cc1 [Example 29] | > 7.0
O=C(Nc1ccc2oncc2c1)C1CCN(c2ncc(C(F)(F)F)cc2Cl)CC1 [Example 31] | > 7.0
O=C(Nc1cccc2cnccc12)C1CCN(c2ncc(C(F)(F)F)cc2Cl)CC1 [Example 32] | > 7.0
Cc1ccc(S(N)(=O)=O)cc1NC(=O)C1CCN(c2ncc(C(F)(F)F)cc2Cl)CC1 [Example 33] | > 7.0
Cc1nccc2c(NC(=O)C3CCN(c4cc(Cl)ccc4Cl)CC3)cccc12 [Example 43] | > 7.0
Cc1nccc2c(NC(=O)C3CCN(c4ncccc4C(F)(F)F)CC3)cccc12 [Example 44] | > 7.0
Cc1cc(C(F)(F)F)cc(N2CCC(C(=O)Nc3cccc4c(C)nccc34)CC2)n1 [Example 45] | > 7.0
